## Library screening results

Amino acid sequences for entries named in this document (tags omitted).
UniProt E9BF75, entry or part of it: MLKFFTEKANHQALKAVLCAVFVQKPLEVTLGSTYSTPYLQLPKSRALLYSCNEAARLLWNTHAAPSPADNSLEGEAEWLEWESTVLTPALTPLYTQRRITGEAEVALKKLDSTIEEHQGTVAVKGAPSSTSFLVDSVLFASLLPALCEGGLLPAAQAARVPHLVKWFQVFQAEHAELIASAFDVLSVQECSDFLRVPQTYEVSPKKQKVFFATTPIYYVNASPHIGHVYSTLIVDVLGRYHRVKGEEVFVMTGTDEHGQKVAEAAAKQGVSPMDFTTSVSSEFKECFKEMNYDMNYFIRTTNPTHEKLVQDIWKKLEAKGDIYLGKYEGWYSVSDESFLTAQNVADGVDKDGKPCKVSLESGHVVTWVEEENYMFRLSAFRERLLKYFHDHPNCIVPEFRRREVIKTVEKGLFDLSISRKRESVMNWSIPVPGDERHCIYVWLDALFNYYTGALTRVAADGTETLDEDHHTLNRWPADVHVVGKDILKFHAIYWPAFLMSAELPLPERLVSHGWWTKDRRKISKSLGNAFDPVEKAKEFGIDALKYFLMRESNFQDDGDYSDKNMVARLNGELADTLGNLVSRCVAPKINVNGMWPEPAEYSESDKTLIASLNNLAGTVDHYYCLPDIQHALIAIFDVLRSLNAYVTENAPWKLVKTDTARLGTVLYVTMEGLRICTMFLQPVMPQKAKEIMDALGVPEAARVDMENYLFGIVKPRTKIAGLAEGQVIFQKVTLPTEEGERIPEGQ

Source: ChEMBL document CHEMBL3988442, “University of Dundee, Small-Polar-MMV Screening Library” (2021).

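Methionyl-tRNA synthetase (putative), Leishmania donovani (UniProt E9BF75). Primary screen of methionyl-tRNA synthetase; the read-out is not stated. The test concentration is not given. Values are per cent inhibition. Size under these conditions: about 68,000 compounds, about 24 of them at 50% or above in at least one test.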

All values are in %.
The record does not define 0% and 100%; most values in the screen are far below 50% and negative numbers occur (in some assays of this library far below -100).
This is an unselected part of the compounds tested.

SMILES	Inhibition
CCn1[nH]c(C)c2c(C(F)(F)F)cc(=O)nc1-2	5.263%
CC(C)CCN1CCc2c(C(=O)N(C)Cc3ccccn3)nn(C)c2C1	8.696%
COc1cccc(CNC(=O)N2CCCC(Cn3cc(CN)nn3)C2)c1 (configuration not stated)	12.97%
COCCCNC(=O)CN(C)C1CCCN(c2cccnn2)C1 (configuration not stated)	18.72%
CCN(C)CC(C)Cn1cnc(-c2ccccc2)c1-c1cncn1CC (configuration not stated)	14.09%
CCC(=O)N1CCC(c2nc(N3CCCC3)ncc2S(C)(=O)=O)CC1	2.201%
CC(=O)N1CCCN(C(=O)c2cnn(C(C)(C)C)c2C)CC1	18.75%
CCN(Cc1ccoc1)C(=O)C1CN(C(=O)OC(C)(C)C)C1	8.122%
Cc1ccccc1CN(C)C(=O)CN1CCCCC1Cn1cncn1 (configuration not stated)	11.8%
COC[C@@H]1CN(C)C(=O)[C@@H]2CCN(Cc3ccco3)CC[C@H]12	14.86%
CCC(CO)N(Cc1ccc(C(=O)O)cc1)Cc1ccsc1 (configuration not stated)	15.24%
CCn1cc(CNC(C)c2noc(-c3ccc(Cl)cc3)n2)cn1 (configuration not stated)	7.33%
Cc1nn(Cn2ccc(C(=O)N3CCOCC3)n2)c(C)c1Cl	13.16%
CNC(=O)N(Cc1c(F)cccc1F)C1CCCC1	11.46%

The first 2 entries again:

SMILES,Inhibition
CCn1[nH]c(C)c2c(C(F)(F)F)cc(=O)nc1-2,5.263%
CC(C)CCN1CCc2c(C(=O)N(C)Cc3ccccn3)nn(C)c2C1,8.696%